# Measured values: the supplement of paper PMC8728848
# The other results are listed elsewhere or left out.
# B1: FliC (Clostridium difficile) (protein)
# chain: MRVNTNVSALIANNQMGRNVNGQSKSMEKLSSGVRIKRAADDAAGLAISEKMRAQIKGLDQAGRNVQDGISVVQTAEGSLEETGNILQRMRTLSLQSANEINNTEEREKIADELTQLKDEIERISSSTEFNGKKLLDGTSSTIRLQVGASYGTNVSGTSNNNNEIKIQLVNTASIMASAGITTASIGSMKAGGTTGTDAAKTMVSSLDAALKSLNSSRAKLGAQQNRLESTQNNLNNTLENVTAAESRIRDTDVASEMVNLSKMNILVQASQSMLAQANQQPQGVLQLLG
# Assays:
# Assay in all cases: glycan array binding signal (z-score within array); higher = stronger binding
# Conditions in all cases: glycan notation: IUPAC condensed, linker removed
# [1] = biological target: Fuc(a1-2)[Gal(a1-3)]Gal(b1-4)GlcNAc(b1-2)Man(a1-3)[Fuc(a1-2)[Gal(a1-3)]Gal(b1-4)GlcNAc(b1-2)Man(a1-6)]Man(b1-4)GlcNAc(b1-4)[Fuc(a1-6)]GlcNAc
# In short: (§1)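 Glycan array binding is given as a within-array Z-score, which can be read as non-binding when negative. The arrays, 3228 of them, came from the Consortium for Functional Glycomics database and were retained only where the protein sequence was available. Z-scores were averaged across arrays of the same protein sequence at different concentrations or buffers and across linkers.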
# [2] = biological target: Fuc(a1-2)[Gal(a1-3)]Gal(b1-4)GlcNAc(b1-3)GalNAc
# In short: as §1
# [3] = biological target: Fuc(a1-2)[Gal(a1-3)]Gal(b1-4)GlcNAc(b1-6)GalNAc
# In short: as §1
# [4] = biological target: Fuc(a1-2)[Gal(a1-3)]Gal(b1-4)[Fuc(a1-3)]Glc
# In short: as §1
# [5] = biological target: Fuc(a1-2)[Gal(a1-3)]Gal(b1-4)[Fuc(a1-3)]GlcNAc
# In short: as §1
# [6] = biological target: Fuc(a1-2)[Gal(a1-3)]Gal(b1-4)[Fuc(a1-3)]GlcNAc(b1-3)GalNAc
# In short: as §1
# [7] = biological target: Fuc(a1-2)[Gal(a1-4)]Gal(b1-4)GlcNAc
# In short: as §1
# [8] = biological target: Fuc(a1-2)[GalNAc(a1-3)]Gal
# In short: as §1
# [9] = biological target: Fuc(a1-2)[GalNAc(a1-3)]Gal(b1-3)GalNAc(a1-3)[Fuc(a1-2)]Gal(b1-4)GlcNAc
# In short: as §1
# [10] = biological target: Fuc(a1-2)[GalNAc(a1-3)]Gal(b1-3)GalNAc(b1-3)Gal(a1-4)Gal(b1-4)Glc
# In short: as §1
# [11] = biological target: Fuc(a1-2)[GalNAc(a1-3)]Gal(b1-3)GlcNAc
# In short: as §1
# [12] = biological target: Fuc(a1-2)[GalNAc(a1-3)]Gal(b1-3)GlcNAc(b1-2)Man(a1-3)[Fuc(a1-2)[GalNAc(a1-3)]Gal(b1-3)GlcNAc(b1-2)Man(a1-6)]Man(b1-4)GlcNAc(b1-4)GlcNAc
# In short: as §1
# [13] = biological target: Fuc(a1-2)[GalNAc(a1-3)]Gal(b1-3)GlcNAc(b1-2)Man(a1-3)[Fuc(a1-2)[GalNAc(a1-3)]Gal(b1-3)GlcNAc(b1-2)Man(a1-6)]Man(b1-4)GlcNAc(b1-4)[Fuc(a1-6)]GlcNAc
# In short: as §1
# [14] = biological target: Fuc(a1-2)[GalNAc(a1-3)]Gal(b1-3)GlcNAc(b1-3)GalNAc
# In short: as §1
# [15] = biological target: Fuc(a1-2)[GalNAc(a1-3)]Gal(b1-3)GlcNAc(b1-6)GalNAc
# In short: as §1
# [16] = biological target: Fuc(a1-2)[GalNAc(a1-3)]Gal(b1-4)Glc
# In short: as §1
# [17] = biological target: Fuc(a1-2)[GalNAc(a1-3)]Gal(b1-4)GlcNAc
# In short: as §1
# [18] = biological target: Fuc(a1-2)[GalNAc(a1-3)]Gal(b1-4)GlcNAc(b1-2)Man
# In short: as §1
# [19] = biological target: Fuc(a1-2)[GalNAc(a1-3)]Gal(b1-4)GlcNAc(b1-2)Man(a1-3)[Fuc(a1-2)[GalNAc(a1-3)]Gal(b1-4)GlcNAc(b1-2)Man(a1-6)]Man(b1-4)GlcNAc(b1-4)GlcNAc
# In short: as §1
# [20] = biological target: Fuc(a1-2)[GalNAc(a1-3)]Gal(b1-4)GlcNAc(b1-2)Man(a1-3)[Fuc(a1-2)[GalNAc(a1-3)]Gal(b1-4)GlcNAc(b1-2)Man(a1-6)]Man(b1-4)GlcNAc(b1-4)[Fuc(a1-6)]GlcNAc
# In short: as §1
# [21] = biological target: Fuc(a1-2)[GalNAc(a1-3)]Gal(b1-4)GlcNAc(b1-3)Gal(b1-4)GlcNAc
# In short: as §1
# [22] = biological target: Fuc(a1-2)[GalNAc(a1-3)]Gal(b1-4)GlcNAc(b1-3)Gal(b1-4)GlcNAc(b1-3)Gal(b1-4)GlcNAc
# In short: as §1
# [23] = biological target: Fuc(a1-2)[GalNAc(a1-3)]Gal(b1-4)GlcNAc(b1-3)GalNAc
# In short: as §1
# [24] = biological target: Fuc(a1-2)[GalNAc(a1-3)]Gal(b1-4)GlcNAc(b1-3)[Fuc(a1-2)[GalNAc(a1-3)]Gal(b1-4)GlcNAc(b1-6)]GalNAc
# In short: as §1
# [25] = biological target: Fuc(a1-2)[GalNAc(a1-3)]Gal(b1-4)GlcNAc(b1-6)GalNAc
# In short: as §1
# [26] = biological target: Fuc(a1-2)[GalNAc(a1-3)]Gal(b1-4)[Fuc(a1-3)]GlcNAc
# In short: as §1
# [27] = biological target: Fuc(a1-2)[GalNAc(a1-3)]Gal(b1-4)[Fuc(a1-3)]GlcNAc(b1-3)GalNAc
# In short: as §1
# [28] = biological target: Fuc(a1-2)[GalNAc(a1-4)]Gal(b1-4)GlcNAc
# In short: as §1
# [29] = biological target: Fuc(a1-2)[GalNAc(b1-3)]Gal
# In short: as §1
# [30] = biological target: Fuc(a1-3)GlcNAc
# In short: as §1
# [31] = biological target: Fuc(a1-3)[Gal(b1-4)]Glc6S
# In short: as §1
# [32] = biological target: Fuc(a1-3)[Gal(b1-4)]GlcNAc
# In short: as §1
# [33] = biological target: Fuc(a1-3)[Gal(b1-4)]GlcNAc(b1-2)Man
# In short: as §1
# [34] = biological target: Fuc(a1-3)[Gal(b1-4)]GlcNAc(b1-2)Man(a1-3)[Fuc(a1-3)[Gal(b1-4)]GlcNAc(b1-2)Man(a1-6)]Man(b1-4)GlcNAc(b1-4)GlcNAc
# In short: as §1
# [35] = biological target: Fuc(a1-3)[Gal(b1-4)]GlcNAc(b1-2)Man(a1-3)[Fuc(a1-3)[Gal(b1-4)]GlcNAc(b1-2)Man(a1-6)]Man(b1-4)GlcNAc(b1-4)[Fuc(a1-6)]GlcNAc
# In short: as §1
# [36] = biological target: Fuc(a1-3)[Gal(b1-4)]GlcNAc(b1-3)Gal(b1-3)[Fuc(a1-4)]GlcNAc
# In short: as §1
# [37] = biological target: Fuc(a1-3)[Gal(b1-4)]GlcNAc(b1-3)Gal(b1-4)[Fuc(a1-3)]GlcNAc
# In short: as §1
# [38] = biological target: Fuc(a1-3)[Gal(b1-4)]GlcNAc(b1-3)Gal(b1-4)[Fuc(a1-3)]GlcNAc(b1-3)Gal(b1-4)[Fuc(a1-3)]GlcNAc
# In short: as §1
# [39] = biological target: Fuc(a1-3)[Gal(b1-4)]GlcNAc(b1-3)GalNAc
# In short: as §1
# [40] = biological target: Fuc(a1-3)[Gal(b1-4)]GlcNAc(b1-6)GalNAc
# In short: as §1
# [41] = biological target: Fuc(a1-3)[Gal(b1-4)]GlcNAc(b1-6)[Gal(b1-3)GlcNAc(b1-3)]Gal(b1-4)Glc
# In short: as §1
# [42] = biological target: Fuc(a1-3)[Gal(b1-4)]GlcNAc6S
# In short: as §1
# [43] = biological target: Fuc(a1-3)[Gal3S(b1-4)]Glc
# In short: as §1
# [44] = biological target: Fuc(a1-3)[Gal3S(b1-4)]GlcNAc
# In short: as §1
# [45] = biological target: Fuc(a1-3)[Gal3S(b1-4)]GlcNAc6S
# In short: as §1
# [46] = biological target: Fuc(a1-3)[GalNAc(b1-4)]GlcNAc
# In short: as §1
# [47] = biological target: Fuc(a1-3)[GalNAc(b1-4)]GlcNAc6S
# In short: as §1
# [48] = biological target: Fuc(a1-4)GlcNAc
# In short: as §1
# [49] = biological target: Fuc(b1-3)GlcNAc
# In short: as §1
# [50] = biological target: Gal(a1-2)Gal
# In short: as §1
# [51] = biological target: Gal(a1-3)Gal
# In short: as §1
# [52] = biological target: Gal(a1-3)Gal(b1-3)GlcNAc
# In short: as §1
# [53] = biological target: Gal(a1-3)Gal(b1-3)GlcNAc(b1-2)Man
# In short: as §1
# [54] = biological target: Gal(a1-3)Gal(b1-3)GlcNAc(b1-2)Man(a1-3)[Gal(a1-3)Gal(b1-3)GlcNAc(b1-2)Man(a1-6)]Man(b1-4)GlcNAc(b1-4)GlcNAc
# In short: as §1
# [55] = biological target: Gal(a1-3)Gal(b1-3)GlcNAc(b1-3)GalNAc
# In short: as §1
# [56] = biological target: Gal(a1-3)Gal(b1-3)GlcNAc(b1-6)GalNAc
# In short: as §1
# [57] = biological target: Gal(a1-3)Gal(b1-3)[Fuc(a1-4)]GlcNAc(b1-2)Man(a1-3)[Gal(a1-3)Gal(b1-3)[Fuc(a1-4)]GlcNAc(b1-2)Man(a1-6)]Man(b1-4)GlcNAc(b1-4)GlcNAc
# In short: as §1
# [58] = biological target: Gal(a1-3)Gal(b1-4)Glc
# In short: as §1
# [59] = biological target: Gal(a1-3)Gal(b1-4)GlcNAc
# In short: as §1
# [60] = biological target: Gal(a1-3)Gal(b1-4)GlcNAc(b1-2)Man
# In short: as §1
binder,measurement,setting,value
B1,glycan array binding signal (z-score),[1],-0.063
same,glycan array binding signal (z-score),[2],-0.189
same,glycan array binding signal (z-score),[3],-0.094
same,glycan array binding signal (z-score),[4],0.019
same,glycan array binding signal (z-score),[5],1.1
same,glycan array binding signal (z-score),[6],1.28
same,glycan array binding signal (z-score),[7],-0.239
same,glycan array binding signal (z-score),[8],-0.23
same,glycan array binding signal (z-score),[9],-0.598
same,glycan array binding signal (z-score),[10],-0.483
same,glycan array binding signal (z-score),[11],-0.807
same,glycan array binding signal (z-score),[12],-0.628
same,glycan array binding signal (z-score),[13],1.26
same,glycan array binding signal (z-score),[14],-0.43
same,glycan array binding signal (z-score),[15],-0.176
same,glycan array binding signal (z-score),[16],-0.381
same,glycan array binding signal (z-score),[17],-0.677
same,glycan array binding signal (z-score),[18],-0.698
same,glycan array binding signal (z-score),[19],0.362
same,glycan array binding signal (z-score),[20],0.713
same,glycan array binding signal (z-score),[21],0.703
same,glycan array binding signal (z-score),[22],0.873
same,glycan array binding signal (z-score),[23],0.431
same,glycan array binding signal (z-score),[24],0.005
same,glycan array binding signal (z-score),[25],-0.283
same,glycan array binding signal (z-score),[26],-0.174
same,glycan array binding signal (z-score),[27],-0.106
same,glycan array binding signal (z-score),[28],-0.165
same,glycan array binding signal (z-score),[29],-0.533
same,glycan array binding signal (z-score),[30],-0.747
same,glycan array binding signal (z-score),[31],0.165
same,glycan array binding signal (z-score),[32],-0.337
same,glycan array binding signal (z-score),[33],-0.202
same,glycan array binding signal (z-score),[34],1.35
same,glycan array binding signal (z-score),[35],0.331
same,glycan array binding signal (z-score),[36],-0.313
same,glycan array binding signal (z-score),[37],-0.063
same,glycan array binding signal (z-score),[38],-0.069
same,glycan array binding signal (z-score),[39],-0.15
same,glycan array binding signal (z-score),[40],0.423
same,glycan array binding signal (z-score),[41],-0.284
same,glycan array binding signal (z-score),[42],-0.087
same,glycan array binding signal (z-score),[43],1.81
same,glycan array binding signal (z-score),[44],0.132
same,glycan array binding signal (z-score),[45],0.354
same,glycan array binding signal (z-score),[46],-0.706
same,glycan array binding signal (z-score),[47],-0.276
same,glycan array binding signal (z-score),[48],0.102
same,glycan array binding signal (z-score),[49],-0.932
same,glycan array binding signal (z-score),[50],-0.637
same,glycan array binding signal (z-score),[51],0.039
same,glycan array binding signal (z-score),[52],4.21
same,glycan array binding signal (z-score),[53],-0.592
same,glycan array binding signal (z-score),[54],-0.204
same,glycan array binding signal (z-score),[55],-0.411
same,glycan array binding signal (z-score),[56],-0.065
same,glycan array binding signal (z-score),[57],0.34
same,glycan array binding signal (z-score),[58],0.767
same,glycan array binding signal (z-score),[59],-0.787
same,glycan array binding signal (z-score),[60],-0.716

# An excerpt of these results, with tabs.
binder	measurement	setting	value
B1	glycan array binding signal (z-score)	[1]	-0.063
same	glycan array binding signal (z-score)	[4]	0.019
same	glycan array binding signal (z-score)	[33]	-0.202
same	glycan array binding signal (z-score)	[37]	-0.063
